Article PMC12446771
No constants are given. Whether binding was seen depends on the method and setting. In cells and extracts the contact can be indirect. Some binding calls cover weakened binding; strength is not graded here.

Chains of the proteins cited; added tags and fusions are not shown.
UniProt O95622: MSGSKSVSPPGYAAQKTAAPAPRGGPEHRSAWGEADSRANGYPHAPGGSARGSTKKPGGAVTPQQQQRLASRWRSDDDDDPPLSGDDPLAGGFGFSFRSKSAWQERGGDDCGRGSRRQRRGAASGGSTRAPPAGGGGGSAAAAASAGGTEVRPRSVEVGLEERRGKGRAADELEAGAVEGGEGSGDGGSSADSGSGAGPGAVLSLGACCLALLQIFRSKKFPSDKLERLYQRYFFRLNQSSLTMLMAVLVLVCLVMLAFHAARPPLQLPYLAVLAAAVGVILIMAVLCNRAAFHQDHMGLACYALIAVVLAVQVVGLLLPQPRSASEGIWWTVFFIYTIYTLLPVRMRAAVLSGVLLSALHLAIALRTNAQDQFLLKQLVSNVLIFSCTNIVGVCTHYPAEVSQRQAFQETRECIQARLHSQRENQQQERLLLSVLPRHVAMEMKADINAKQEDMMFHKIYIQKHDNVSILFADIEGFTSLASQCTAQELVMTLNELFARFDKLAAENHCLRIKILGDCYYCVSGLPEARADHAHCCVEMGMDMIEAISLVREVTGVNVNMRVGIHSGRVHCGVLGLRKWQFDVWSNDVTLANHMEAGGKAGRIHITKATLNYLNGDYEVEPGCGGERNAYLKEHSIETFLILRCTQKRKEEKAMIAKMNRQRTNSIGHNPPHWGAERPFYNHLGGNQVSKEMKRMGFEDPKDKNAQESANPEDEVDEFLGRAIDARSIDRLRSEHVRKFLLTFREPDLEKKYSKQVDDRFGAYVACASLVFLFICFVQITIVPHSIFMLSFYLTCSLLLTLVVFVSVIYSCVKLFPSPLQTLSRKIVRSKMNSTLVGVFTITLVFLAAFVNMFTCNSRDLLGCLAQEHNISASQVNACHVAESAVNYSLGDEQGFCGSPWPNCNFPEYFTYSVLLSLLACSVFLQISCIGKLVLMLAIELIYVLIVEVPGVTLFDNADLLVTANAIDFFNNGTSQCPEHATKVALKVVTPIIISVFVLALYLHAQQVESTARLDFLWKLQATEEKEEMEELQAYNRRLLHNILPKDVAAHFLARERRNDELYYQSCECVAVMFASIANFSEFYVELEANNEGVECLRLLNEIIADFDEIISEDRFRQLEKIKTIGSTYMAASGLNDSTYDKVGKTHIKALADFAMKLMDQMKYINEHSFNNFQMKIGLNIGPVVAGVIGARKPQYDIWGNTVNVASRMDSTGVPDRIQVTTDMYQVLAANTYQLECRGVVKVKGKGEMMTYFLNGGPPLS
UniProt P63095: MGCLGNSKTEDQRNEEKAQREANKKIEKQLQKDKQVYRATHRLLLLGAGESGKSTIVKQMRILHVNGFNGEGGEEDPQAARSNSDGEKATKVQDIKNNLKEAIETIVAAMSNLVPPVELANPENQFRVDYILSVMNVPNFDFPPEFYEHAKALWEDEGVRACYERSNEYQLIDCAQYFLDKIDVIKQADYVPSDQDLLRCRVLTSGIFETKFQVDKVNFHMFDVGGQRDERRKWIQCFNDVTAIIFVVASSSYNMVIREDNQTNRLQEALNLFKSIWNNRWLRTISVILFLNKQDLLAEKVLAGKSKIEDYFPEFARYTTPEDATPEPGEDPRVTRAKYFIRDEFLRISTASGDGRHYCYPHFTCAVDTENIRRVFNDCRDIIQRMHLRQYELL

Biological target: AC5-miniTurbo-FLAG fusion protein (human adenylyl cyclase 5) (human) (UniProt O95622)
Experiment: co-IP; pull-down of AC5-mT-FLAG from neonatal rat cardiomyocytes after isoproterenol (2 min, 10 nM), lysis in 0.5% C12E10, Western blot

binding: binds
Substance: Gαs (from UniProt P63095 1-394)
